No constants are given. Whether binding was seen depends on the method and setting. Some results given as binding are weak or reduced against the parent protein; the word gives no strength.
Assays:
[1] = target: human Tim-3 expressed on the cell surface (human) (UniProt Q8TDQ0); experiment: flow cytometry, activated primary human CD4+ T cells expressing Tim-3
[2] = target: human Tim-3 expressed on the cell surface (human) (UniProt Q8TDQ0); experiment: binding to CHO cells expressing human Tim-3

Amino acid sequences for entries named in this document (tags omitted). A change or cut given only in a name is not applied to a line headed by its entry.
UniProt Q8TDQ0: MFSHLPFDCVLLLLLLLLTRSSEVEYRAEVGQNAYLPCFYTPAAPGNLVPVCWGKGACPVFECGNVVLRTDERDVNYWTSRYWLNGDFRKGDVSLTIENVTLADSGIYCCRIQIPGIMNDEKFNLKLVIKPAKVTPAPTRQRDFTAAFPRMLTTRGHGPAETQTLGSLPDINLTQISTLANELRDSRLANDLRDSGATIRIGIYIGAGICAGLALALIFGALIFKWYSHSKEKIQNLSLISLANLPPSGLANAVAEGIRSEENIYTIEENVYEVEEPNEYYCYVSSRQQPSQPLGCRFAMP

B1: h22E11-5-IgG-LC × h22E11-VH4-30-4 (antibody, V domains shown)
VH: QVQLQESGPGLVKPSQTLSLTCTVSGFSLTSYGVHWIRQPPGKGLEWLVVIWSDGSTTYNPSLKSRVTISKDTSKNQVSLKLSSVTAADTAVYYCARQGGYRYDDAMDYWGQGTLVTVSS
VL: EIVLTQSPGTLSLSPGERATLSCKASQSVDYDGNSYVAWYQQKPGQAPRLLIYAASNLESGIPDRFSGSGSGTDFTLTISRLEPEDFAVYYCQQSNEDPYTFGQGTKVEIK
binding [1]: binds

B2: h22E11-VK1-39 × h22E11-VH4-30-4 (antibody, V domains shown)
VH: QVQLQESGPGLVKPSQTLSLTCTVSGFSLTSYGVHWIRQPPGKGLEWLVVIWSDGSTTYNPSLKSRVTISKDTSKNQVSLKLSSVTAADTAVYYCARQGGYRYDDAMDYWGQGTLVTVSS
VL: DIQLTQSPSSLSASVGDRVTITCKASQSVDYDGNSYVNWYQQKPGKAPKLLIYAASNLESGVPSRFSGSGSGTDFTLTISSLQPEDFATYYCQQSNEDPYTFGQGTKVEIK
binding [1]: binds

B3: mouse hybridoma clone 2D5 antibody (421.51.2.2D5.5E9) (antibody, V domains shown)
VH: EVQLQQSGPELVKPGTSMKISCRASGYPFIGYTMNWVKQSHGGNLEWIGLINPYNGITTYNQKFKGRATLSVDTSSTIAYMELLSLTSDDSAEYYCARSFFYGSSNDWLVYWGQGTLVTVSA
VL: DVLMTQTPLSLPVSLGDQASISCRSSQSIVHTNGNTYLEWYLQKPGQSPKLLIYKVSNRFSGVPDRFSGSGSGTDFTLKISRVEAEDLGVYYCFQGSHVPWTFGGGTELEIK
binding [2]: binds

Reference: patent publication US20180251547A1
